Reference: PubChem BioAssay AID248 (DTP/NCI, 2004)
The list does not hold the whole screen: it is rich in T/C values a quarter to a half above the control, in often repeated tests (any T/C) and in doses without a T/C. Other doses and runs of a compound stand elsewhere. T/C gives the treated animals as a percentage of the vehicle group. Some doses have a count of surviving animals in place of a T/C: the source files T/C as zero there, which appears to mark a toxic dose or a test without result, not a measured value. Some doses without a T/C left all or most animals alive at the check, yet need not have been tolerated: survival well below the control is almost never listed, so the zero probably covers shortened survival too. Survivors were counted at the toxicity check, usually on the fifth day, unless a day is given; later deaths do not show. Schedule codes are those of the source, read here as Q, the interval in days (D) or hours (H), X, the number of doses. Some schedules carry Z or #; the key to these is not given. Where survival is the endpoint, the PubChem record calls one and a half times the control and up active, and a quarter to a half above the control has no call in these data; cut-offs in other NCI protocols can differ. Some T/C values carry the count of animals alive at the toxicity check (mostly the fifth day); without a count, all were alive then.

System: L1210 leukemia ip in BDF1 mice, survival T/C
Assay: NCI In Vivo Anticancer Drug Screen. Data for tumor model L1210 Leukemia (intraperitoneal) in B6D2F1 (BDF1) mice
Conditions: T/C endpoint: mean survival time, higher T/C = longer survival
[1] = dose: 200.0 mg/kg/injection, schedule: Q04DX003 (ip), vehicle: saline
[2] = dose: 400.0 mg/kg/injection, schedule: Q01DX001 (ip), vehicle: saline
[3] = dose: 400.0 mg/kg/injection, schedule: Q04DX003 (ip), vehicle: Klucel (hydroxypropylcellulose) (HPC)
[4] = dose: 400.0 mg/kg/injection, schedule: Q04DX003 (ip), vehicle: saline
[5] = dose: 100.0 mg/kg/injection, schedule: Q01DX009 (ip), vehicle: saline with Tween-80
[6] = dose: 400.0 mg/kg/injection, schedule: Q04DX003 (ip), vehicle: saline with Tween-80
[7] = dose: 400.0 mg/kg/injection, schedule: Q01DX009 (ip), vehicle: Klucel (hydroxypropylcellulose) (HPC)
[8] = dose: 200.0 mg/kg/injection, schedule: Q01DX009 (ip), vehicle: saline
[9] = dose: 400.0 mg/kg/injection, schedule: Q01DX009 (ip), vehicle: saline
[10] = dose: 300.0 mg/kg/injection, schedule: Q01DX001 (ip), vehicle: saline
[11] = dose: 200.0 mg/kg/injection, schedule: Q01DX009 (ip), vehicle: Klucel (hydroxypropylcellulose) (HPC)

With O=C1OC(=O)C2C3c4ccccc4C(c4ccccc43)C12 (centres undefined) the survivor count (dose: 150.0 mg/kg/injection, schedule: Q01DX009 (ip), vehicle: saline) was 3 of 6, the survivor count [1] was 3 of 6 and the survivor count (dose: 225.0 mg/kg/injection, schedule: Q01DX009 (ip), vehicle: saline) was 4 of 6. The survivor count (dose: 335.0 mg/kg/injection, schedule: Q01DX009 (ip), vehicle: saline) was 0 of 6, the survivor count [2] was 0 of 6 and the survivor count [3] was 2 of 6.

For COc1cc2c(c(Oc3ccc(C)cc3)c1)CN(C)CC2, the survivor count [1] was 3 of 6 and the survivor count [4] was 0 of 6.

For CNCCOCc1ccccc1, the survivor count [2] was 0 of 4.

[NH-]C(CCC(N)=O)C(=O)O.[NH-]C(CCC(N)=O)C(=O)O.[Pd+2] (centres undefined) was tested, and the survivor count [4] was 2 of 3.

O=C(C=C(C(F)(F)F)C(F)(F)F)c1ccc(-c2ccccc2)cc1 was tested, and the survivor count [5] was 5 of 6, the survivor count (dose: 200.0 mg/kg/injection, schedule: Q01DX009 (ip), vehicle: saline with Tween-80) was 1 of 6 and the survivor count [6] was 0 of 6.

In the case of CCC(=O)N/N=C/C=N/NC(=O)c1ccncc1, the survivor count [7] is reported as 6 of 6.

In the case of CCc1cc(CC)c(S(=O)(=O)O)c(CC)c1CC, the survivor count [8] is reported as 0 of 6 and the survivor count [9] is reported as 0 of 6.

In the case of N#Cc1ccc[n+](Cc2ccc3c(c2)OCO3)c1, the survivor count [10] is reported as 0 of 6.

For COc1ccc(Cl)cc1N, the survivor count [11] was 6 of 6, the survivor count [7] was 6 of 6 and the survivor count [3] was 6 of 6.

With Cc1nsc(N(NC(=O)c2ccccc2)C(=O)c2ccccc2)n1 the survivor count (dose: 150.0 mg/kg/injection, schedule: Q01DX001 (ip), vehicle: carboxymethylcellulose (CMC)) was 1 of 6 and the survivor count (dose: 300.0 mg/kg/injection, schedule: Q01DX001 (ip), vehicle: carboxymethylcellulose (CMC)) was 0 of 6.

With CNC(=O)n1cnc(N)n1 (tested in a mixture with another compound) the survivor count [7] was 3 of 6.

CN1C2CSCC1CC(O)C2 (centres undefined) was tested, and the survivor count (dose: 150.0 mg/kg/injection, schedule: Q01DX001 (ip), vehicle: saline) was 1 of 6, the survivor count (dose: 300.0 mg/kg/injection, schedule: Q01DX001 (ip), vehicle: other) was 0 of 6 and the survivor count [10] was 0 of 6.

In the case of O/N=C1/CCN2CCCc3cccc1c32, the survivor count [6] is reported as 1 of 6.

CN(C)C=Nc1c2c(C#N)cn(C3OC(CO)C(O)C3O)c2nc[n+]1[O-] (centres undefined) was tested, and the survivor count (dose: 100.0 mg/kg/injection, schedule: Q01DX005 (ip), vehicle: saline) was 6 of 6 and the survivor count (dose: 200.0 mg/kg/injection, schedule: Q01DX005 (ip), vehicle: saline) was 5 of 6.

For [N-]=[N+]=C1Cc2ccccc2C1=O, the survivor count [7] was 6 of 6.

With O=C(Nc1ccc(F)cc1)Nc1ccc(I)cc1 the survivor count [11] was 5 of 6.

With O=C(O)CCC(=O)Nc1ccccc1C(F)(F)F the survivor count [5] was 6 of 6.

With CN(C)NC(=O)/C=C/c1ccccc1 the survivor count [7] was 0 of 6.

For CCN(CC)Cc1cc(Nc2cc(C)nc3ccc(N(C)C)cc23)ccc1O, the survivor count (dose: 100.0 mg/kg/injection, schedule: Q01DX009 (ip), vehicle: saline) was 6 of 6, the survivor count [8] was 2 of 6 and the survivor count [9] was 0 of 6.

In the case of CCCCCCCCCCCCNC(=O)C[n+]1cccc(C(=O)N(CC)CC)c1, the survivor count (dose: 100.0 mg/kg/injection, schedule: Q04DX003 (ip), vehicle: saline) is reported as 1 of 6, the survivor count [1] is reported as 0 of 6 and the survivor count [4] is reported as 0 of 6.

In the case of Cc1cc2oc(=O)cc(N3CCOCC3)c2c(=O)o1, the T/C (dose: 50.0 mg/kg/injection, schedule: Q01DX009 (ip), vehicle: saline with Tween-80) is reported as 125 % of control [5 of 6 alive].

C(/C=C/C=C/Nc1ccc(N=Nc2ccccc2)cc1)=Nc1ccc(N=Nc2ccccc2)cc1 was tested, and the survivor count (dose: 400.0 mg/kg/injection, schedule: Q01DX009 (ip), vehicle: saline sonified) was 3 of 5.

O=S(=O)(CCN1CCCCC1)c1ccc(F)cc1 was tested, and the survivor count [2] was 0 of 4.

In the case of CCCCOP(=O)(OCCCC)c1ccccc1OC, the survivor count (dose: 200.0 mg/kg/injection, schedule: Q04DX002 (ip), vehicle: saline with Tween-80) is reported as 1 of 3 and the survivor count (dose: 400.0 mg/kg/injection, schedule: Q04DX002 (ip), vehicle: saline with Tween-80) is reported as 0 of 3.

For CCOC(=O)c1[nH]c2ccsc2c1CN1CCCCC1, the survivor count (dose: 200.0 mg/kg/injection, schedule: Q01DX001 (ip), vehicle: Klucel (hydroxypropylcellulose) (HPC)) was 2 of 6.

In the case of O=[N+]([O-])c1ccc2c(N=Nc3c(O)ccc4ccccc34)c(O)cc(S(=O)(=O)O)c2c1, the survivor count [2] is reported as 3 of 6.

O=C(NCCCCC(NC(=O)c1ccccc1)C(=O)NCCCCCCCCCCNC(=O)C(CCCCNC(=O)c1ccccc1)NC(=O)c1ccccc1)c1ccccc1 (centres undefined) was tested, and the survivor count (dose: 100.0 mg/kg/injection, schedule: Q01DX Z (ip), vehicle: saline) was 5 of 6 and the survivor count (dose: 300.0 mg/kg/injection, schedule: Q01DX Z (ip), vehicle: saline) was 6 of 6.

O=C(O)CSc1cc(-c2ccc(Cl)cc2)s[s+]1 was tested, and the survivor count (dose: 25.0 mg/kg/injection, schedule: Q01DX009 (ip), vehicle: water) was 5 of 6, the survivor count (dose: 100.0 mg/kg/injection, schedule: Q04DX003 (ip), vehicle: water) was 0 of 6 and the survivor count (dose: 200.0 mg/kg/injection, schedule: Q04DX003 (ip), vehicle: water) was 0 of 6. The survivor count (dose: 400.0 mg/kg/injection, schedule: Q04DX003 (ip), vehicle: water) was 0 of 6.

With CC(C)CCc1c(N)nc(NCCCc2ccccc2)nc1N the survivor count (dose: 400.0 mg/kg/injection, schedule: Q01DX001 (ip), vehicle: Klucel (hydroxypropylcellulose) (HPC)) was 0 of 6.

With COc1ccc(S(=O)(=O)F)cc1NC(=O)CCc1ccc(N2C(N)=NC(N)=NC2(C)C)cc1 the survivor count (dose: 400.0 mg/kg/injection, schedule: Q01DX001 (ip), vehicle: gum acacia) was 0 of 6.
